Our source for the log2 fold change values is the supplement of paper PMC10849652.

The chains behind the UniProt entries cited, without tags or fusion partners. Where a name states a change or a piece, a line headed by the entry shows the natural chain unless it says otherwise.
UniProt Q13287: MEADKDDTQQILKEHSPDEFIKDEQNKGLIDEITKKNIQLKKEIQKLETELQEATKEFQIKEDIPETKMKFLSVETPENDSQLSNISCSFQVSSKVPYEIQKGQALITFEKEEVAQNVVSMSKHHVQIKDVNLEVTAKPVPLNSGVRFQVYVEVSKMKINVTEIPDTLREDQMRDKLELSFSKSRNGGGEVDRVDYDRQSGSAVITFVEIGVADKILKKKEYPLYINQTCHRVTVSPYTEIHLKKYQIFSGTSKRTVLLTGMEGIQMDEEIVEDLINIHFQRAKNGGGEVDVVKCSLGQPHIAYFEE
UniProt Q8TDX7: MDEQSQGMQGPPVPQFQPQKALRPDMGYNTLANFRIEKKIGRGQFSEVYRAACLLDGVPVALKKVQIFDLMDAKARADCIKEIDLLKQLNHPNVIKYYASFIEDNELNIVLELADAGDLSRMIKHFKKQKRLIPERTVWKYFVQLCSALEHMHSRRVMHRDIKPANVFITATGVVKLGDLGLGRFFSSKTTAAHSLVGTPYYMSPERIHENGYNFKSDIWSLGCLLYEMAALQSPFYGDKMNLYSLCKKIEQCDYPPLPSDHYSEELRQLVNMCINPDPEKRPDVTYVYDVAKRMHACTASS
UniProt P16083: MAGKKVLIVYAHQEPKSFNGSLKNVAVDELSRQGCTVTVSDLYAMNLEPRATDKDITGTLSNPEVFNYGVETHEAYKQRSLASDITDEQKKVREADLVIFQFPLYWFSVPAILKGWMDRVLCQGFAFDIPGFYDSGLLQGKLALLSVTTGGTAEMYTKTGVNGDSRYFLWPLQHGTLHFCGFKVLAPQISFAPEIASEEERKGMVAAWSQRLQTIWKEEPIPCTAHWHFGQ
UniProt Q9BS92: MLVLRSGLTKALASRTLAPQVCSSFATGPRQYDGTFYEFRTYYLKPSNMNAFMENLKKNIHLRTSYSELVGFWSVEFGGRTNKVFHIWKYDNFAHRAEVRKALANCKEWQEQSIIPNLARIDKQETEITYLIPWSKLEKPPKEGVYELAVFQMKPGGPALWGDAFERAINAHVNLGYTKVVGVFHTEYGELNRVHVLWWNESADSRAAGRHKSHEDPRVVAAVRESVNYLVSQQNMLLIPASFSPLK
UniProt P24468: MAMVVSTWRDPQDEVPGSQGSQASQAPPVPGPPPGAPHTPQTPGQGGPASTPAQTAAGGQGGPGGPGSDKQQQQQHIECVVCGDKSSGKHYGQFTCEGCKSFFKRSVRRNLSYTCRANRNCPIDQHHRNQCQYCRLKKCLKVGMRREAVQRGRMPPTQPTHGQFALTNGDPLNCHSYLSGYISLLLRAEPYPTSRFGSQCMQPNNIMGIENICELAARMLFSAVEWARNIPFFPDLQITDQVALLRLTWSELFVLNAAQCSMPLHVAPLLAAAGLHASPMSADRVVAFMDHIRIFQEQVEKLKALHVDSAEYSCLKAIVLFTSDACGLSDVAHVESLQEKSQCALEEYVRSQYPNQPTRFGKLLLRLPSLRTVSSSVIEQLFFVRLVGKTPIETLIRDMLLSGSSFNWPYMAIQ
UniProt P48681: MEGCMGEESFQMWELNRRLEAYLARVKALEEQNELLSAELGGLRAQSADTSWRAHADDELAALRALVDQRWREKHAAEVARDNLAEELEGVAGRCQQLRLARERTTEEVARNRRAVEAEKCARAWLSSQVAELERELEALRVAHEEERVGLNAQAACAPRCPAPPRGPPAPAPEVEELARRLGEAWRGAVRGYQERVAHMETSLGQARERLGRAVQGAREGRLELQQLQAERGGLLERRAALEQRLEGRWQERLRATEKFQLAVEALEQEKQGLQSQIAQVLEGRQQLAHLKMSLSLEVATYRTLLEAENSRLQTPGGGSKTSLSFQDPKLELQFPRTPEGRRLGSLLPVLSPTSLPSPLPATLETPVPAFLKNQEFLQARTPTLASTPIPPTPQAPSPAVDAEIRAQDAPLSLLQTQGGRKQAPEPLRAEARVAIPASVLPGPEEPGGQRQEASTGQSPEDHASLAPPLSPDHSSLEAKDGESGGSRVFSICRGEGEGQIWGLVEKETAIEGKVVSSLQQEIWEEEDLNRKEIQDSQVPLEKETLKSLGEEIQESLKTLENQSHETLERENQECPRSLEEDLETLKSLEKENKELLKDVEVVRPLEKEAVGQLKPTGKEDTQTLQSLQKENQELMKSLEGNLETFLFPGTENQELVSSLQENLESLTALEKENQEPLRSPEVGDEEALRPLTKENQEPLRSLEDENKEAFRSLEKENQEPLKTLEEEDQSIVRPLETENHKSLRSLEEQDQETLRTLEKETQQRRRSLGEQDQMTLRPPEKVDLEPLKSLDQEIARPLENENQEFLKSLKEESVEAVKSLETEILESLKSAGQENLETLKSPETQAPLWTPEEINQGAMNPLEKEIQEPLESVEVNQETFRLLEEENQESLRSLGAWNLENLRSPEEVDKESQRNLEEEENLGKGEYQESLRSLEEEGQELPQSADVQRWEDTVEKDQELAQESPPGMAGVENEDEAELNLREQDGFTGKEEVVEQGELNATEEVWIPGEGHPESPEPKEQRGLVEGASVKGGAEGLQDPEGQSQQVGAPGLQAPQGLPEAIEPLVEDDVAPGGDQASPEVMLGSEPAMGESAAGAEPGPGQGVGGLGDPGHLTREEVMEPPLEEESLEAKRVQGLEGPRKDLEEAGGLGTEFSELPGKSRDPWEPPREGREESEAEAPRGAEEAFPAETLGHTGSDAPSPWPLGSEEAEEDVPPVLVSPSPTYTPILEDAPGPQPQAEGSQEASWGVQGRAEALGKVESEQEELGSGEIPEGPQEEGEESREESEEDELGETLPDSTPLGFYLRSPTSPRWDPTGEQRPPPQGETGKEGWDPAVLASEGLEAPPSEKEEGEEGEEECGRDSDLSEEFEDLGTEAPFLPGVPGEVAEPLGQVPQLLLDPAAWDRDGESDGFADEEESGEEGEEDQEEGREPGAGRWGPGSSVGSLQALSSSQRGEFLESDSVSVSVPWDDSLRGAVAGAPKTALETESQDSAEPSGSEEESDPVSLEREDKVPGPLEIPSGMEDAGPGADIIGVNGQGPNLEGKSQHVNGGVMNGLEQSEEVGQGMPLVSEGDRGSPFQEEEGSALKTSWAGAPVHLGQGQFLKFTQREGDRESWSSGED
UniProt O43847: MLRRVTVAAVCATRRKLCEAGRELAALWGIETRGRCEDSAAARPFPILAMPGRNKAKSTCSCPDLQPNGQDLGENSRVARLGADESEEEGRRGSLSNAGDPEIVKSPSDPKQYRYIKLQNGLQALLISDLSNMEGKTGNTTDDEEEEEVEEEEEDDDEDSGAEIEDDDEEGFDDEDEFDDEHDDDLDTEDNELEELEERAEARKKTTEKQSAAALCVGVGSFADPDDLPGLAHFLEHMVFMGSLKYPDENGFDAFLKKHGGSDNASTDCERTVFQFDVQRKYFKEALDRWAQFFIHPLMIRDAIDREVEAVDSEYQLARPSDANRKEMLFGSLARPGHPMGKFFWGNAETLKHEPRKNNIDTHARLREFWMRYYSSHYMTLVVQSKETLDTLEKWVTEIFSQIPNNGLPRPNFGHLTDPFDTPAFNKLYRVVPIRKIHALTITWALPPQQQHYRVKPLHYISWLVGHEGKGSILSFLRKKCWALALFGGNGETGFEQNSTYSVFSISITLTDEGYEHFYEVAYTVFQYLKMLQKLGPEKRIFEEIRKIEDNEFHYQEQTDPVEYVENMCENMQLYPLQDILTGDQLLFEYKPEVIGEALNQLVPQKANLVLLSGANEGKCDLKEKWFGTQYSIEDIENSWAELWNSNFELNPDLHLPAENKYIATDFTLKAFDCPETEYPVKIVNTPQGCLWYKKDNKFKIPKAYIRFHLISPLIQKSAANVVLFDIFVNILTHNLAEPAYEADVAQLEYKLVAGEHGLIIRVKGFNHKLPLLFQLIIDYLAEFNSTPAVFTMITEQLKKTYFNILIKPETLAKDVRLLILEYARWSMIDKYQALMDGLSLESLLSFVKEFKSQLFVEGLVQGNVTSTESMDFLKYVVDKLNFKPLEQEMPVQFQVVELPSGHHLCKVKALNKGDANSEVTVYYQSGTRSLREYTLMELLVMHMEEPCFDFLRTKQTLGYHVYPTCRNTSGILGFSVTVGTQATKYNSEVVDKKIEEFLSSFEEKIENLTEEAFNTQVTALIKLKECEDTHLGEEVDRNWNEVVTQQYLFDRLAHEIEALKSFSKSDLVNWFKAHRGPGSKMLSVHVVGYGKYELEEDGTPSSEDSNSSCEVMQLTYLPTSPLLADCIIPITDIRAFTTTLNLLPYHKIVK
UniProt Q9BZQ8: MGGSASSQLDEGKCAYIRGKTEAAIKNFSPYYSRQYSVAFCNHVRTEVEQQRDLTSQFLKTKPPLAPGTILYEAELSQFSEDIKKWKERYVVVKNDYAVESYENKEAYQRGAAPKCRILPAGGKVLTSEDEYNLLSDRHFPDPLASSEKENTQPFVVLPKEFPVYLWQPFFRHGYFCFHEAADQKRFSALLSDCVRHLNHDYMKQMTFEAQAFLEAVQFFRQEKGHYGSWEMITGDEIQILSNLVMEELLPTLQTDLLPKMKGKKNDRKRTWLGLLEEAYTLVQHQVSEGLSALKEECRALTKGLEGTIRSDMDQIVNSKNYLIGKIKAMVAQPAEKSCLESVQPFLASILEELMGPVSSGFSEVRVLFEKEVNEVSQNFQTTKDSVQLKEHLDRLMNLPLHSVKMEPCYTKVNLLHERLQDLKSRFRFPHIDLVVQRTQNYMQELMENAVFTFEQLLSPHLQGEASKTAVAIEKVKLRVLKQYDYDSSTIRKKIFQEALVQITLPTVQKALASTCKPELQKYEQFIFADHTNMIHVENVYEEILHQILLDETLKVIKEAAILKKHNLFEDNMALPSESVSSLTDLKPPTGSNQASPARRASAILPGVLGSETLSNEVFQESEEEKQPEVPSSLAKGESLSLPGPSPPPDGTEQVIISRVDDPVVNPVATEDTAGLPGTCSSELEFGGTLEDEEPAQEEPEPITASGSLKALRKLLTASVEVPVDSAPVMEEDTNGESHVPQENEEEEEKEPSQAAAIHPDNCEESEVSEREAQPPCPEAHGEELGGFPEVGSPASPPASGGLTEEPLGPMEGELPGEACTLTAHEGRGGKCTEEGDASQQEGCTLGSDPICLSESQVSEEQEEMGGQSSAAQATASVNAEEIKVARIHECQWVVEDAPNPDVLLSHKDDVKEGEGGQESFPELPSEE
UniProt Q9Y3C1: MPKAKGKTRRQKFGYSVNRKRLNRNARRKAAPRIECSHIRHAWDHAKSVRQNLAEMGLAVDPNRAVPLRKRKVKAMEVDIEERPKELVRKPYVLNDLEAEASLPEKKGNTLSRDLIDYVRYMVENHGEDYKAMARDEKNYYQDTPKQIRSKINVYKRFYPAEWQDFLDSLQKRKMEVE
UniProt Q9BYG3: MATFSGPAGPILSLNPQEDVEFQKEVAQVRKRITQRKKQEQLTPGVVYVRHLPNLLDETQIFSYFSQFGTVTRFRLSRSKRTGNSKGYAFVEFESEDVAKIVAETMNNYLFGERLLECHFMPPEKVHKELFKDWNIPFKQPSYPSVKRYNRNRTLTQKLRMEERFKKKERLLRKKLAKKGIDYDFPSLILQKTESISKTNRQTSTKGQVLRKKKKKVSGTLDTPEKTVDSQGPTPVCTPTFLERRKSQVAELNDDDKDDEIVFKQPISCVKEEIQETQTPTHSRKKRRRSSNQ
UniProt P18615, whole entry, looked up: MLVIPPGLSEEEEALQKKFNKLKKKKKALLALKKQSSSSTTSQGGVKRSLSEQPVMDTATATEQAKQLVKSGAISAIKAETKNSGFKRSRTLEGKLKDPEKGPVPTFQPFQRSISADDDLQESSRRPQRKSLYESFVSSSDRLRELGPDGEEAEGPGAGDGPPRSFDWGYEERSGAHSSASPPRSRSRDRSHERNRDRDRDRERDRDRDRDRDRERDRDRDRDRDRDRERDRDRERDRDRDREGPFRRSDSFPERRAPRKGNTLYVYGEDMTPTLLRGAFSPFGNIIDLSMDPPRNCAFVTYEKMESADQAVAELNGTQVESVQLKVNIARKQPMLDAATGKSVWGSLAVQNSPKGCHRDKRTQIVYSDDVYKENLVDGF
UniProt Q9NPE2: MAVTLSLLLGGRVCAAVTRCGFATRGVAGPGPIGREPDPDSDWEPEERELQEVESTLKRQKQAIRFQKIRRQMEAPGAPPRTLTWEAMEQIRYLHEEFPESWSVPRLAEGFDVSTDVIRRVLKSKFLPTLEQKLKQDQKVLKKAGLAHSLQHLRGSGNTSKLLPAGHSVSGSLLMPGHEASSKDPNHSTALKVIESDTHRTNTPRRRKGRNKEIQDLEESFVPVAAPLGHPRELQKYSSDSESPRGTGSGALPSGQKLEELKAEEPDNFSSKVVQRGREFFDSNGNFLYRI
UniProt Q96T66: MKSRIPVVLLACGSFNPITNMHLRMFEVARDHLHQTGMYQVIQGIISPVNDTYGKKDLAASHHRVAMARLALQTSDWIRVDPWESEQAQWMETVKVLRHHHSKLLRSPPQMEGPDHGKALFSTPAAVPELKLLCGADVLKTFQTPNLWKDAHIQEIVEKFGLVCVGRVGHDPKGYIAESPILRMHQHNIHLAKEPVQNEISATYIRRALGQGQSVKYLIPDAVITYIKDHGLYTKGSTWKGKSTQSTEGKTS

The list shows a part of the results.

Compound in this experiment: C1=CC=C(C=C1)[C@H](COC2=CC3=C(C=C2)NC(=O)N3)NC(=O)C4=CC=CN(C4=O)CC5=CC(=C(C=C5)F)F
In words: log2 fold change, soluble protein after heating vs DMSO (PISA); higher = thermal stabilisation; K562 cells, 10 uM, 30 min; active = over 0.2 and 3.5 SD of the protein, either way, in both replicates (recomputed). In a few lines:
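K562 cells (2×10^6 cells/mL) were treated with 10 μM compound for 30 min, and aliquots were heated for 3 min over 48°C-58°C. Pooled aliquots were extracted in PBS with 0.5% NP-40 at 4°C, and the supernatant after 21,000xg for 90 min was measured by TMTpro 16plex LC-MS/MS with channel sums equalised. Reported thermal stability, relative to control samples and from duplicates, is a log2 fold change.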
With NMI (UniProt Q13287), the log2 fold change was inactive: 0.024.

As to NIPA2 (UniProt Q8N8Q9), the log2 fold change is inactive: -0.003.

On to NEK7 (UniProt Q8TDX7), for which the log2 fold change is inactive: 0.062.

On to NQO2 (UniProt P16083), for which the log2 fold change is inactive: 0.024.

For the target NIPSNAP3B (UniProt Q9BS92), the log2 fold change was inactive: 0.045.

In the case of NSD1 (UniProt Q96L73), the log2 fold change was inactive: 0.016.

For NR2F2 (UniProt P24468), the log2 fold change was inactive: -0.061.

On to NES (UniProt P48681), for which the log2 fold change was inactive: -0.368.

Take NRDC isoform 2 (UniProt O43847): the log2 fold change is inactive: -0.058.

Take NFS1 (UniProt Q9Y697): the log2 fold change is inactive: 0.008.

Take NPM3 (UniProt O75607): the log2 fold change is inactive: 0.066.

With NHLRC2 (UniProt Q8NBF2), the log2 fold change is inactive: -0.027.

With NOL12 (UniProt Q9UGY1), the log2 fold change is inactive: 0.123.

As for NOB1 (UniProt Q9ULX3), the log2 fold change was inactive: -0.048.

As to NIBAN1 (UniProt Q9BZQ8), the log2 fold change was inactive: -0.017.

As to NME7 (UniProt Q9Y5B8), the log2 fold change was inactive: -0.112.

Regarding NIPA1 (UniProt Q7RTP0), the log2 fold change was inactive: 0.105.

Consider NEU1 (UniProt Q99519), for which the log2 fold change is inactive: -0.116.

Turning to NIPSNAP2 (UniProt C9J7B1), the log2 fold change was inactive: -0.069.

For the target NPL (UniProt Q9BXD5), the log2 fold change is inactive: -0.014.

Take NOP16 (UniProt Q9Y3C1): the log2 fold change was inactive: 0.17.

Turning to NRGN (UniProt Q92686), the log2 fold change is inactive: 0.048.

NOMO3 (UniProt P69849): the log2 fold change is inactive: 0.036.

As for NIT2 (UniProt Q9NQR4), the log2 fold change was inactive: -0.016.

As for NIFK (UniProt Q9BYG3), the log2 fold change is inactive: 0.007.

NSDHL (UniProt Q15738): the log2 fold change is inactive: 0.029.

As for NOMO1 (UniProt Q15155), the log2 fold change is inactive: -0.133.

Turning to NME2 isoform 2 (UniProt P22392), the log2 fold change is inactive: 0.035.

Regarding NOC3L (UniProt Q8WTT2), the log2 fold change is inactive: -0.188.

Take NELFE isoform 3 (UniProt P18615): the log2 fold change was inactive: -0.017.

Turning to NOP53 (UniProt Q9NZM5), the log2 fold change is inactive: 0.103.

On to NSA2 (UniProt O95478), for which the log2 fold change was inactive: -0.411.

As to NKTR (UniProt P30414), the log2 fold change is inactive: 0.014.

Take NGRN (UniProt Q9NPE2): the log2 fold change is inactive: 0.056.

For NMNAT3 (UniProt Q96T66), the log2 fold change is inactive: -0.073.

As for NNMT (UniProt P40261), the log2 fold change is inactive: 0.021.
